Primary screen of a compound library

By UniProt entry, the sequences of proteins in these tests, tags left out.
UniProt P9WFT3, whole entry: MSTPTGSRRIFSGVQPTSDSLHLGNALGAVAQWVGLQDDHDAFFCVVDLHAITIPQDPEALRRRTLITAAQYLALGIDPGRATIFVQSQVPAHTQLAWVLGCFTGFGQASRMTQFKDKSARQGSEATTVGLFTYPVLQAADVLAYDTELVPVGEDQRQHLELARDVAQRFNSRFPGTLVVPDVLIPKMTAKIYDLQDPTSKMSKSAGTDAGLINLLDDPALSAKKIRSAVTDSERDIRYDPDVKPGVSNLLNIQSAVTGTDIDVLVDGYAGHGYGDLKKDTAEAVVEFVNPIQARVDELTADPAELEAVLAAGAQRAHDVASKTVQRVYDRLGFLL
UniProt P9WNZ1, whole entry: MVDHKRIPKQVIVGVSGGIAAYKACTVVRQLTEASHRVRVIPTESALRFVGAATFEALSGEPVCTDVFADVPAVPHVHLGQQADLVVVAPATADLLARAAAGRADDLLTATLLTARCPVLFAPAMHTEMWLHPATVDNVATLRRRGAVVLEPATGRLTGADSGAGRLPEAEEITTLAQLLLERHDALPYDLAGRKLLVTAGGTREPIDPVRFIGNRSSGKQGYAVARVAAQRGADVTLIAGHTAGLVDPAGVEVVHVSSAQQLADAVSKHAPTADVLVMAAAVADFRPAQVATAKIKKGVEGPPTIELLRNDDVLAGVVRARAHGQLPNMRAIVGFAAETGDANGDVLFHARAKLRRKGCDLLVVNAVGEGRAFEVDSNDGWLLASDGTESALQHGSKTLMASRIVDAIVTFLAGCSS

Leishmania in macrophages: 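Cell assay of Leishmania donovani living inside macrophages; the read-out is not stated. Compounds at 30 µM. Higher reads as stronger inhibition (inferred: compounds with an IC50 in retests scored well above the rest). Of about 69,000 compounds tested this way, about 1,000 (1.5%) reached 50% or more in at least one test.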
MtTrpRS: 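Tryptophan-tRNA ligase, Mycobacterium tuberculosis (UniProt P9WFT3). Enzyme assay of tryptophanyl-tRNA synthetase; the read-out is not stated. Compounds at 10 µM. Direction is not recorded; retested compounds ran higher, which suggests that high means inhibition. About 65,000 compounds were tested under these conditions; 0.098% (about 64) showed 50% or more at least once.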
Toxoplasma: 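Assay of Toxoplasma gondii numbers, read through their beta-galactosidase reporter with a colour substrate. Tested at 10 µM. Higher reads as fewer parasites (inferred from which compounds were picked for retests). Size under these conditions: about 67,000 compounds, about 260 of them at 50% or above in at least one test.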
CoaBC: 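Coenzyme A biosynthesis protein CoaBC, Mycobacterium tuberculosis (UniProt P9WNZ1). Enzyme assay of CoaBC with a phosphate dye (Biomol Green) read at 650 nm. Tested at 30 µM. Direction is inferred from only a few compounds that gave an IC50; most scored high, so higher reads as stronger inhibition. Most strong results did not repeat in a second test. About 67,000 compounds were tested under these conditions; 0.06% (about 40) showed 50% or more at least once.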

Results are given as percent effect. The controls that fix the scale are not given in the record; negative values are as filed. This is an unselected part of the compounds tested. A dash means the value is not listed here; it may have been measured.

| compound | Leishmania in macrophages | MtTrpRS | Toxoplasma | CoaBC |
|---|---|---|---|---|
| `Cc1cn2c(n1)CCC(NC(=O)Cn1cncn1)C2` (configuration not stated) | 14.59 | -8.291 | 0.3814 | 4.725 |
| `CN(Cc1ccccc1)CC(O)Cn1cnc2cc(F)ccc2c1=O` (configuration not stated) | -0.6747 | -4.947 | 17.21 | 2.368 |
| `O=C(NC[C@H]1OC[C@@H]2CCN(C(=O)c3ccco3)C[C@@H]21)C1CC1` | - | 0.5029 | - | 1.322 |
| `O=C(c1ccc2c(c1)[nH]c(=O)n2[C@H]1CC[C@H](O)CC1)N1CCOCC1` | 21.29 | -2.773 | 1.361 | 4.8 |
| `N#Cc1cnc2ccccc2c1N1CCN(C(=O)C2CCC2)CC1` | -14.59 | 1.966 | 3.895 | 8.238 |
| `Cc1cn(CC(=O)NCC(=O)NC2CC2)c2ccccc12` | 8.926 | -2.862 | 12.34 | 0.9862 |
| `[H][C@@]12OCCC[C@]1([H])N(C(C)=O)C[C@@H]2NC(=O)c1cscn1` | -13.39 | - | -0.3765 | - |
| `CCCNc1ncc(CN2CCC3(CC2)CNC(=O)C3)cn1` | -14.09 | 7.495 | -0.4508 | 11.54 |
| `Cn1nc(COc2cncnc2)c2c1CCN(Cc1ccco1)C2.O=C(O)C(F)(F)F` | 13.7 | - | -18.28 | - |
| `O=C(NCCc1cc(F)ccc1F)NCC(O)C1CC1` (configuration not stated) | 16.53 | 4.272 | 4.535 | 0.4132 |
| `CC(=O)N1CCN(C(=O)C2SCCc3sccc32)CC1` (configuration not stated) | 0.1983 | 2.814 | -4.317 | -2.277 |
| `CC(=O)c1cc(C(=O)NC2(c3ccc(Br)cc3)CC2)n(C)c1` | -38.79 | 10.39 | 0.3236 | - |
| `CN(CCc1ccccc1)c1cnn(CC(=O)N2CCOCC2)c(=O)c1` | 22.5 | -4.527 | -10.09 | 7.613 |
| `Cc1cc(-c2nn(C)c(Cl)c2CN2CCN(C)C(C(=O)O)C2)no1` (configuration not stated) | 5.729 | 1.701 | -4.723 | 4.762 |
| `CCn1c(C)nc2cc(NC(=O)C3CN(C(C)=O)C3)ccc21` | 44.16 | -11.47 | -8.333 | -0.7884 |
| `O=c1n(Cc2ccc(C(F)(F)F)cc2)nc2ncccn12` | -0.5378 | 0.9488 | 8.947 | 1.937 |
| `COC(=O)c1cccc(C(=O)N2CCCCC2CCn2ccnc2C)c1` (configuration not stated) | 16.27 | 1.599 | -0.8811 | -8.036 |
| `COc1cc(N(C)Cc2cccc(-n3cccn3)c2)nc(N)n1` | 32.16 | -3.846 | -4.121 | 9.677 |
| `[H][C@@]12CN(Cc3ccccn3)C[C@]1([H])CN(C(=O)Cc1ccccn1)C2` | 13.57 | - | 14.43 | - |
| `CC(Nc1ccc(CC(=O)N(C)C)cc1)C(=O)N(C)CCC#N` (configuration not stated) | 24.62 | -6.659 | 5.402 | -6.452 |
| `Cc1cc(C)n(-c2ccc(C(C)NS(=O)(=O)CCCS(C)(=O)=O)cc2)n1` (configuration not stated) | -14.01 | 9.806 | -3.241 | -1.613 |
| `CCCC(C)NC1CCN(c2ccc(-n3ccnc3C)cc2)CC1` (configuration not stated) | 24.98 | -4.446 | -1.71 | 3.599 |
| `CC(=O)N1CCN(Cc2ccccn2)CC2(CC(=O)N(C)C2)C1.O=C(O)C(F)(F)F.O=C(O)C(F)(F)F` (configuration not stated) | 9.92 | - | 2.746 | - |
| `COCCCNC(=O)CN(C)C(=O)CN(C)c1ccc(C#N)cn1` | 10.95 | -1.485 | 6.439 | -3.69 |
| `CC(NC(=O)N1CCNC(=O)CC1)c1ccc(C(F)(F)F)cc1` (configuration not stated) | 19.5 | 4.339 | -16.6 | -0.3797 |
| `COC(=O)[C@@H]1C[C@@H](O)CN1Cc1ccn(-c2ccc(F)cc2)n1` | -5.508 | 2.878 | 10.38 | 3.558 |
| `CNS(=O)(=O)c1ccc(CN2CCC(c3ccncc3)CC2)cc1` | 19.73 | -3.016 | 2.973 | 1.613 |
| `O=C(N1CCC(Oc2ccncc2)C1)C1(c2ccc(F)cc2)CC1` (configuration not stated) | -12.46 | 6.11 | 7.97 | 8.068 |
| `O=C(NCc1ccc(-n2cncn2)nc1)c1ccc2c(c1)CCC2` | 26.25 | -7.345 | -2.349 | 8.265 |
| `CC(O)CN1CCC(CN(C)Cc2ccc(C#N)cc2)CC1` (configuration not stated) | 20.07 | -1.514 | -2.05 | - |
| `O=C(C1=CCCC1)N1CCC[C@]2(C[C@@H](OCc3ccncc3)CO2)C1.O=C(O)C(F)(F)F` | 14.72 | - | 2.778 | - |
| `Cc1cc(C)nc(NC2CCN(CCOC(C)C)CC2)n1` | -11.3 | 4.239 | -7.64 | -0.3236 |
| `Cc1cccc(N(CCC(N)=O)C(=O)c2cnccn2)c1` | -21.22 | 1.528 | 1.298 | 8.293 |
| `Cc1ncc(C(=O)N2CCCC2c2c(C)nn(C)c2C)s1` (configuration not stated) | 7.23 | 1.738 | -0.5737 | 0.1274 |
| `CS(=O)(=O)NC(=O)c1nnn(-c2cccc(F)c2)c1C1CC1` | 0.3789 | -3.302 | 4.272 | 7.024 |
| `COCCNC(=O)[C@H]1C[C@@H]2CCN(c3ncccn3)C[C@H]2O1` | - | -0.9982 | - | 2.222 |
| `Cc1nc(NCc2ccc(C)o2)cc(C2CCNCC2)n1` | -9.496 | 1.188 | 13.28 | 1.399 |
| `CC(C)(C)OC(=O)NC(C)(C)c1noc(Cn2ccnc2)n1` | 40.03 | 0.7819 | -0.3167 | 2.372 |
| `CC(=O)c1cc(CC(=O)N2CCCC2c2nc(C(C)C)no2)cs1` (configuration not stated) | 30.68 | 8.485 | -3.846 | -1.091 |
| `c1cc(CO[C@@H]2CC[C@H]3[C@H]2OCCN3Cc2ccoc2)ccn1` | - | 0.08719 | - | 8.74 |
| `c1coc(CNc2nnc(Cc3ccsc3)o2)c1` | 2.281 | 0 | 2.854 | - |
| `[H][C@@]12CN(CC(C)C)C[C@]1([H])C(=O)NC21CCN(C(=O)c2cccnc2)CC1` | 13.96 | - | -15.11 | - |
| `CC(O)CN(CC(=O)NC(=O)NCC(F)(F)F)c1ccccc1` (configuration not stated) | -3.017 | 2.267 | 1.949 | 6.41 |
| `c1cc(-c2c[nH]c([C@@H]3COCCN3Cc3ncc[nH]3)n2)ccn1` | 3.126 | 1.449 | -1.859 | 10.41 |
| `CC(C)(C)c1cnc(CN2CCC(c3ccnn3CCO)CC2)o1` | 34.63 | -2.124 | - | 1.799 |

For reference, 5 entries once more:

- CC(=O)c1cc(CC(=O)N2CCCC2c2nc(C(C)C)no2)cs1 (configuration not stated) : Leishmania in macrophages: 30.68%; MtTrpRS: 8.485%; Toxoplasma: -3.846%; CoaBC: -1.091%
- O=C(NCCc1cc(F)ccc1F)NCC(O)C1CC1 (configuration not stated) : Leishmania in macrophages: 16.53%; MtTrpRS: 4.272%; Toxoplasma: 4.535%; CoaBC: 0.4132%
- CNS(=O)(=O)c1ccc(CN2CCC(c3ccncc3)CC2)cc1 : Leishmania in macrophages: 19.73%; MtTrpRS: -3.016%; Toxoplasma: 2.973%; CoaBC: 1.613%
- O=c1n(Cc2ccc(C(F)(F)F)cc2)nc2ncccn12 : Leishmania in macrophages: -0.5378%; MtTrpRS: 0.9488%; Toxoplasma: 8.947%; CoaBC: 1.937%
- c1cc(-c2c[nH]c([C@@H]3COCCN3Cc3ncc[nH]3)n2)ccn1 : Leishmania in macrophages: 3.126%; MtTrpRS: 1.449%; Toxoplasma: -1.859%; CoaBC: 10.41%

Source: ChEMBL document CHEMBL3988442, “University of Dundee, Small-Polar-MMV Screening Library” (2021).